Experimental data reported in publication PMC6572854, “Convergent allostery in ribonucleotide reductase” (Nature Communications, 2019).
These are yes or no findings as the source states them, for the method shown. Tags and fused reporters may be left off the sequences shown.

Biological target: Bacillus subtilis class Ib ribonucleotide reductase NrdE (α subunit), wild type, tagless (Bacillus subtilis) (UniProt P50620)
Assay: condition: only with 1 mM ATP (40 µM holo-NrdE loaded); SEC-SAXS; 40 µM wt holo-NrdE loaded, 1 mM ATP, 0.5 mM CDP, assay buffer with 1% glycerol, 4 °C, evolving factor analysis; both purified

B1: Bacillus subtilis class Ib ribonucleotide reductase NrdE (α subunit), wild type, tagless (enzyme)
chain: MSQNQVPKWIQLNNEIMIQKDGKFQFDKDKEAVHSYFVDYINQNTVFFHNLKEKLDYLVENQYYEEEFLSLYSFEDIKEVFKTAYAKKFRFPSFMSAFKFYNDYALKTNDKKKILERYEDRISIVALFFANGDTEKAKEYVNLMINQEYQPSTPTFLNAGRKRRGELVSCFLLEVNDSLNDISRAIDISMQLSKLGGGVSLNLSKLRAKGEAIKDVENATKGVVGVMKLLDNAFRYADQMGQRQGSGAAYLNIFHRDINDFLDTKKISADEDVRVKTLSIGVVIPDKFVELAREDKAAYVFYPHTIYKEYGQHMDEMDMNEMYDKFVDNPRVKKEKINPRKLLEKLAMLRSESGYPYIMFQDNVNKVHANNHISKVKFSNLCSEVLQASQVSSYTDYDEEDEIGLDISCNLGSLNILNVMEHKSIEKTVKLATDSLTHVSETTDIRNAPAVRRANKAMKSIGLGAMNLHGYLAQNGIAYESPEARDFANTFFMMVNFYSIQRSAEIAKEKGETFDQYEGSTYATGEYFDKYVSTDFSPKYEKIANLFEGMHIPTTEDWKKLKAFVAEHGMYHSYRLCIAPTGSISYVQSSTASVMPIMERIEERTYGNSKTYYPMPGLASNNWFFYKEAYDMDMFKVVDMIATIQQHIDQGISFTLFLKDTMTTRDLNRIDLYAHHRGIKTIYYARTKDTGQDSCLSCVV
notes: NrdE, α subunit of the class Ib ribonucleotide reductase of Bacillus subtilis; holo-NrdE carries the co-purified dAMP ligand, apo-NrdE is nucleotide-free; same polypeptide; also called wt apo-NrdE (dAMP-free)
binding: no binding
